Test results reported in PMC8873275.
These are yes or no findings as the source states them, for the method shown. Binding seen in cells or lysates may run through a third protein. Some binding calls cover weakened binding; strength is not graded here. For part of these data: Where a sequence is shown, tags or fusion partners need not be part of it.

By UniProt entry, the sequences of proteins in these tests, tags left out.
UniProt P46937: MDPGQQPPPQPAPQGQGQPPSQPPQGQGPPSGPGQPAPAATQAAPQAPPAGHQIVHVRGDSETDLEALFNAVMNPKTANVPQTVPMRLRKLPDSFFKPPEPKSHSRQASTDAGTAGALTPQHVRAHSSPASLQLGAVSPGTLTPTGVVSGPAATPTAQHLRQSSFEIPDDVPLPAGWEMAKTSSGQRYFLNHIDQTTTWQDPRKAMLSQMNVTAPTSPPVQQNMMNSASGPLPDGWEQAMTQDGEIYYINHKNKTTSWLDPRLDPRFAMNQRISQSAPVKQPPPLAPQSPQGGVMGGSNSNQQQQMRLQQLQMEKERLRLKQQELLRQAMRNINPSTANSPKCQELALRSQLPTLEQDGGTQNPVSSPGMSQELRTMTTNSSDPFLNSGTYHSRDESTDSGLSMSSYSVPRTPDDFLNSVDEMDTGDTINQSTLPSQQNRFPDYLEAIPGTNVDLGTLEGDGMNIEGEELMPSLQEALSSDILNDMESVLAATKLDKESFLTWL
UniProt Q969U6: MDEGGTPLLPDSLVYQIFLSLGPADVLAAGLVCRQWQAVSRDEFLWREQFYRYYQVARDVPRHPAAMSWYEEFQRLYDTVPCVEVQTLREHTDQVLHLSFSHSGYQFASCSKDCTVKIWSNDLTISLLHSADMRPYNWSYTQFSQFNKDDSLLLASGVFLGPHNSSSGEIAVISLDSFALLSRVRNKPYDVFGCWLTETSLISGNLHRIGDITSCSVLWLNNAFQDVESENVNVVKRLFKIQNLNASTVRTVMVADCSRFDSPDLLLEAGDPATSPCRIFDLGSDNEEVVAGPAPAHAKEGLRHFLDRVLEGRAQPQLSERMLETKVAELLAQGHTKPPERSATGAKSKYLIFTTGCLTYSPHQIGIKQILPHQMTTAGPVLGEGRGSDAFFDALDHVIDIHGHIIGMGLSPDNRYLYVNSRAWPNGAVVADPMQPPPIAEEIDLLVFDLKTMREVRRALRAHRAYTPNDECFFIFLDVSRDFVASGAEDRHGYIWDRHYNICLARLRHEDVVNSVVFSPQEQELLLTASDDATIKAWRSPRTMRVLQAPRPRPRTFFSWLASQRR

Tests used:
Test in all cases: co-IP; HEK-293T cells transfected with myc-FBXW5 (or its ΔF-box or ΔWD deletion mutants) and flag-LATS1, flag-LATS2 or flag-YAP1 plasmids; procedure as in ref. 9
[1] = biological target: T1, Flag-LATS1 (large tumor suppressor kinase 1) (UniProt O95835)
T1 sequence: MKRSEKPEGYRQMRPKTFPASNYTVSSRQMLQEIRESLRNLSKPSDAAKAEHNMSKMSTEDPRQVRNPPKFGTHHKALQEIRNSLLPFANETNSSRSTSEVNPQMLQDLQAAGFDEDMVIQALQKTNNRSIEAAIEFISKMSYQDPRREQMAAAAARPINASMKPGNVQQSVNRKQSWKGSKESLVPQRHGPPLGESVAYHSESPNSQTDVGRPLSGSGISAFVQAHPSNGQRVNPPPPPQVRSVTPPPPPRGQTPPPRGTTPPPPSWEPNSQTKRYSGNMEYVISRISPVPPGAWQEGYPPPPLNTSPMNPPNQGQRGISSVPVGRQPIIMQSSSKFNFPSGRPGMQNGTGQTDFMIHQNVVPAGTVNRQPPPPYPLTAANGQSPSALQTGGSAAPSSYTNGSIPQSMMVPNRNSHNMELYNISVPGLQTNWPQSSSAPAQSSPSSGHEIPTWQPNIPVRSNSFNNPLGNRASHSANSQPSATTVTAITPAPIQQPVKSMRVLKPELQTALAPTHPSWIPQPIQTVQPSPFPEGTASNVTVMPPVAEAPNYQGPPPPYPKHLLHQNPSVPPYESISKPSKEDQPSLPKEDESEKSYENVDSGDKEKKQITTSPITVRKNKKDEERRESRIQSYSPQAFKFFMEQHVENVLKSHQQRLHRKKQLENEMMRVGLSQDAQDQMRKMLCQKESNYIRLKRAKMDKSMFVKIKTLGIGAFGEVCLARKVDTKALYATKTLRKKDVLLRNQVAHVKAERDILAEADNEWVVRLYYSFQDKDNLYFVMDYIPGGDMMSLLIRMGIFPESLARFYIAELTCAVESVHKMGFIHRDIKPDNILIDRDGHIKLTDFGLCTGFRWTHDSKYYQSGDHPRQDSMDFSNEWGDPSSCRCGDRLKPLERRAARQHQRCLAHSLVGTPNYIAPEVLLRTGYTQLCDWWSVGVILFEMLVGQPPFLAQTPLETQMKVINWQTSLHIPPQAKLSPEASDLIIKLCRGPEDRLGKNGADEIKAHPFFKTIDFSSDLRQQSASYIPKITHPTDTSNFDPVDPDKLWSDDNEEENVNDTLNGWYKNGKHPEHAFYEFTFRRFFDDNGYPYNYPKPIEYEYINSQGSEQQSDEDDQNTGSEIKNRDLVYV

[2] = biological target: T2, Flag-LATS2 (large tumor suppressor kinase 2) (UniProt Q9NRM7)
T2 sequence: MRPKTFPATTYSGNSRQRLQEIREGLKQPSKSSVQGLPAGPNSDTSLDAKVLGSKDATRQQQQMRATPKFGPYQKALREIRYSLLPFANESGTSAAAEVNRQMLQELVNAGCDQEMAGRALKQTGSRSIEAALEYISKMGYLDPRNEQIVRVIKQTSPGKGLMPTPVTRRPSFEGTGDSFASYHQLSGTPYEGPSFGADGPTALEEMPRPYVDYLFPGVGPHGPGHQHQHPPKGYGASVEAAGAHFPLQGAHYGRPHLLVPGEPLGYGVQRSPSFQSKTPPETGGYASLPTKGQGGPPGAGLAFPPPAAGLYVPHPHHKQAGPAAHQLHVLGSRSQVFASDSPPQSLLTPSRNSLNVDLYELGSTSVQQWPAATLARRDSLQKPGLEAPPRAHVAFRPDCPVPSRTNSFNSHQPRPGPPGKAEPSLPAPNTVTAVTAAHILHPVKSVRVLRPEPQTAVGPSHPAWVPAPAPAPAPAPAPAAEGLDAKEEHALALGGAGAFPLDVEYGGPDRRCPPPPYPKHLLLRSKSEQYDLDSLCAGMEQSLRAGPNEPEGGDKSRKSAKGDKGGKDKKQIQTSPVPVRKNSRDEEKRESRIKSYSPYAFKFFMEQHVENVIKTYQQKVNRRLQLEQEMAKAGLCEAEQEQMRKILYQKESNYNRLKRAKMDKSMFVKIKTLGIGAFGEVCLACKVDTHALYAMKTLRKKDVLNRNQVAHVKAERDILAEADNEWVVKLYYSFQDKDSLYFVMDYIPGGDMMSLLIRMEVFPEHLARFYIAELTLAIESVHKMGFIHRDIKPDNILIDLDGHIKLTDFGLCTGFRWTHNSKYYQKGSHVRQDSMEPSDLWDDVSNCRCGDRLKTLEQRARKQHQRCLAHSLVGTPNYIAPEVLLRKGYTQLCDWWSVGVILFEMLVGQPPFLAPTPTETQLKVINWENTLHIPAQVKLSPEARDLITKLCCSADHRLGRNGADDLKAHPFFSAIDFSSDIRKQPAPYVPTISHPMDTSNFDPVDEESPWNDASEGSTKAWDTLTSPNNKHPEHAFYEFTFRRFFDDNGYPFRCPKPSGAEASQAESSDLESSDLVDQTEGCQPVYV

[3] = biological target: Flag-YAP1 (yes-associated protein) (UniProt P46937)

## Myc-FBXW5 (F-box and WD repeat domain-containing 5) (from UniProt Q969U6 1-566)
[1]
  binding: binds
[2]
  binding: no binding
[3]
  binding: no binding
